Data: patent publication US5747661
For some of these results: No signal at the amounts used counts as a negative. For some of these results: Tags and fusion partners may be left off the protein sequences shown.

Chains of the proteins cited; added tags and fusions are not shown. Lines headed by an entry give the natural chain unless they say otherwise; changes in a name come on top. A line that says so, or that is headed by a name, gives the form on record, which may keep a tag or linker.
UniProt P19793: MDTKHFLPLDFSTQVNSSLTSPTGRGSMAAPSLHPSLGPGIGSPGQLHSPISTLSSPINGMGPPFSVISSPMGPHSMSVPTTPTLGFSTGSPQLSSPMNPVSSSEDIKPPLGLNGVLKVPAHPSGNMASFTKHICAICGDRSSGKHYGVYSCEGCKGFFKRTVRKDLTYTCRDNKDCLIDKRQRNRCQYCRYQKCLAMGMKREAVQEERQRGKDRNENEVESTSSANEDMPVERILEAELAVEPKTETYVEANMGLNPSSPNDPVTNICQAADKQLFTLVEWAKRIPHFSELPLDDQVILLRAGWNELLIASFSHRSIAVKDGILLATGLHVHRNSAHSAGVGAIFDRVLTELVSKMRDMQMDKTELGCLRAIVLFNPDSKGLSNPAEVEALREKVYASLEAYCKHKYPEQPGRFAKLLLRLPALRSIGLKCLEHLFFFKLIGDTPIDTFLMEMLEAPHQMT
LXRα/RXRα heterodimer (Homo sapiens), one chain, as listed by the source: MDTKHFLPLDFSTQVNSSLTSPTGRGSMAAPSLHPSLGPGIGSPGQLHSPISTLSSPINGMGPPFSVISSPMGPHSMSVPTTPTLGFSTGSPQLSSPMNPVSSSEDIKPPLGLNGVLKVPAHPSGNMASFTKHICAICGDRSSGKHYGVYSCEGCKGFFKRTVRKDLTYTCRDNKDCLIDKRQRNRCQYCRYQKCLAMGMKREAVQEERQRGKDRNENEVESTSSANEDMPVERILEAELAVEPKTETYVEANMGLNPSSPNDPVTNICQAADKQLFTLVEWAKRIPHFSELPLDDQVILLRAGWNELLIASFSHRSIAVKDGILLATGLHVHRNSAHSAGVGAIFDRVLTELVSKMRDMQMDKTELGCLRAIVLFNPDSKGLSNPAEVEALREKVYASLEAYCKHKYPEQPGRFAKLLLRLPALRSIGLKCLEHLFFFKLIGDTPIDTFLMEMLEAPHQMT

Assays:
LXRα (Homo sapiens) = target: T1, LXRα (Homo sapiens) (UniProt Q13133); assay: EMSA; details: LXRα alone; protein translated in vitro; label: 32P
T1 sequence: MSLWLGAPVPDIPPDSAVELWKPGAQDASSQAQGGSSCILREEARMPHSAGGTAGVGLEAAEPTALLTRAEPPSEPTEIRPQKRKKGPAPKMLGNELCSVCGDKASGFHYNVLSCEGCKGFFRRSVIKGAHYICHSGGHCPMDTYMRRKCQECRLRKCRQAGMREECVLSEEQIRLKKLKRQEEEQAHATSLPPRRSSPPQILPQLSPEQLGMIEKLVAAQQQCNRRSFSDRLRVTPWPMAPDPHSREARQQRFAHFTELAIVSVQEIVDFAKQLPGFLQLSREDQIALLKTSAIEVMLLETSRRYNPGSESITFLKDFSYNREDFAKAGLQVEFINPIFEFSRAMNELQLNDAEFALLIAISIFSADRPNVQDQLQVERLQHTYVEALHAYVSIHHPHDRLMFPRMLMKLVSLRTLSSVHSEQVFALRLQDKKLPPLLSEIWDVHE

[1] = system: LXRα/RXRα heterodimer (Homo sapiens); assay: activity in cells; details: synergistic basal and methoprene acid response; CV-1 cells; protein in cells; only the site is given
RARα (Homo sapiens) = target: T2, RARα (Homo sapiens) (UniProt P10276); assay: activity in cells; details: no transactivation; protein in cells; only the site is given
T2 sequence (looked up, limits assumed): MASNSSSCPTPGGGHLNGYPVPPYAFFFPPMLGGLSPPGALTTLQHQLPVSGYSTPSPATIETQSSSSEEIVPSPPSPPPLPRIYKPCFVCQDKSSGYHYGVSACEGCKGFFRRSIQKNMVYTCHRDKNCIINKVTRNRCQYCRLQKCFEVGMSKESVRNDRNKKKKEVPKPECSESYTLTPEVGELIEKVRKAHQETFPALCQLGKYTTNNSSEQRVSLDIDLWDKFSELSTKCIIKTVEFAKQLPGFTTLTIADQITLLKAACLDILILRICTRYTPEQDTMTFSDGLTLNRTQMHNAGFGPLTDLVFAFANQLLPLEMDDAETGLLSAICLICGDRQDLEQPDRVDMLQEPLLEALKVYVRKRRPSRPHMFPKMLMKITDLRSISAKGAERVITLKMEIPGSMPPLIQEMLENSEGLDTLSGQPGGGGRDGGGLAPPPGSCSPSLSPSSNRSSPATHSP

RXRα (Homo sapiens) = RXRα (Homo sapiens) (UniProt P19793); assay: activity in cells; details: no transactivation; protein in cells; only the site is given

CTTGCGGTTCCCAGGGTTTAAATAAGTTCA (double strand) [LXRE (ΔMTV)]
binding result (LXRα (Homo sapiens)): no binding | activity on this sequence [1]: active | activity on this sequence (RARα (Homo sapiens)): not active | activity on this sequence (RXRα (Homo sapiens)): not active
